PubChem BioAssay AID504786 | Drosophila RNAi Screening Center, 2011
The deposit covers about 21,000 reagents; below is an unselected part of those that have a named target and a result. 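Primary screen; positive scores mean lost reporter signal, so the sign may be inverted from the usual convention.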

Screen: 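Positive regulators of HIF-driven reporter output in Drosophila cells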 (primary screen)
Cell system: Drosophila S2 cells with a stable HIF luciferase reporter
Reagent: long dsRNA against Drosophila genes, about 0.2 µg dsRNA per well of a 384-well plate
Timing: three days of knock-down, then 20 h of DFO before reading
Challenge: desferrioxamine (DFO) at 100 µM, an iron chelator that mimics hypoxia, for 20 h
Measurement: 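HIF reporter luminescence in cells given 100 µM DFO for 20 h, using the mouse ldh-a hypoxia-response element, scored as per-plate z-scores; higher means greater loss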
Scale: z-score: higher = stronger loss of HIF reporter signal

Against Xpd [DRSC04666], the values are z-score, replicate 1 = -0.4; z-score, replicate 2 = -1.2.
With knock-down of Mec2 [DRSC20054], the record shows z-score, replicate 1 = -0.2; z-score, replicate 2 = -0.2.
With knock-down of CG17221 [DRSC00487] the results were z-score, replicate 1 = -0.1; z-score, replicate 2 = -0.1.
With knock-down of CG42680 [DRSC01399], the record shows z-score, replicate 1 = 0.1; z-score, replicate 2 = 0.2.
For Prosbeta1 [DRSC07159], the entry reads z-score, replicate 1 = 3.6; z-score, replicate 2 = 5.4.
Knock-down of CG14720 [DRSC14942] came out at: z-score, replicate 1 = -0.3; z-score, replicate 2 = -0.5.
Pop5 [DRSC10074] showed z-score, replicate 1 = -0.1; z-score, replicate 2 = 0.2.
For l(1)G0289 [DRSC18215], the values are z-score, replicate 1 = -0.3; z-score, replicate 2 = -0.6.
With knock-down of CG2818 [DRSC00540] the results were z-score, replicate 1 = -0.4; z-score, replicate 2 = -0.3.
For Boot [DRSC06412], the values are z-score, replicate 1 = -0.3; z-score, replicate 2 = -0.4.
After knock-down of Gr66a [DRSC10783], the record shows z-score, replicate 1 = -0.2; z-score, replicate 2 = -0.3.
For Iswi [DRSC07446], the values are z-score, replicate 1 = 1.8; z-score, replicate 2 = 1.3.
Depletion of E(var)3-9 [DRSC14451] resulted in: z-score, replicate 1 = -0.2; z-score, replicate 2 = 0.9.
With knock-down of Dgat2 [DRSC06803] the results were z-score, replicate 1 = -0.3; z-score, replicate 2 = -0.1.
Vm26Aa [DRSC03472] gave z-score, replicate 1 = -0.2; z-score, replicate 2 = -0.4.
After knock-down of MTA1-like [DRSC12382] the results were z-score, replicate 1 = 0.1; z-score, replicate 2 = 0.3.

Laid out differently: 2 of the entries above.
{"predicted target": "Prosbeta1", "DRSC id": "DRSC07159", "z-score, replicate 1": 3.6, "z-score, replicate 2": 5.4}
{"predicted target": "CG14720", "DRSC id": "DRSC14942", "z-score, replicate 1": -0.3, "z-score, replicate 2": -0.5}
